From publication PMC8357146

Target: transforming growth factor beta (human (endogenous in gastric tissue))
Test: co-IP; whole tissue lysates (3 pairs of gastric tumor and adjacent normal tissue, RIPA buffer) incubated with anti-TGF-β1 antibody and agarose-protein A/G beads at 4°C overnight; washed with lysis buffer; immunoblotted with anti-DCN and anti-ASPN

binding: binds
B1: asporin (protein, UniProt Q9BXN1 33-380)
chain: DMEDTDDDDDDDDDDDDDDEDNSLFPTREPRSHFFPFDLFPMCPFGCQCYSRVVHCSDLGLTSVPTNIPFDTRMLDLQNNKIKEIKENDFKGLTSLYGLILNNNKLTKIHPKAFLTTKKLRRLYLSHNQLSEIPLNLPKSLAELRIHENKVKKIQKDTFKGMNALHVLEMSANPLDNNGIEPGAFEGVTVFHIRIAEAKLTSVPKGLPPTLLELHLDYNKISTVELEDFKRYKELQRLGLGNNKITDIENGSLANIPRVREIHLENNKLKKIPSGLPELKYLQIIFLHSNSIARVGVNDFCPTVPKMKKSLYSAISLFNNPVKYWEMQPATFRCVLSRMSVQLGNFGM

These are yes or no findings as the source states them, for the method shown. Binding seen in cells or lysates may run through a third protein. Binding calls can cover weak binding; strength is not graded here.
